Reference: US20260070976A1

Columns and labels:
[1] = molecular target: cell surface PILRA on cynomolgus monocytes (cynomolgus monkey); test: Binding on cyno mono (cynomolgus monocytes), flow cytometry; summary cell
[2] = molecular target: recombinant cynomolgus PILRB (cynomolgus monkey); test: SPR
[3] = molecular target: cell surface PILRA on cynomolgus monocytes (cynomolgus monkey); test: flow cytometry; Alexa Fluor 647-conjugated antibody on cynomolgus monocytes (white blood cells), Fc receptors blocked, 30 min on ice
[4] = molecular target: cell surface PILRA on cynomolgus monocytes (cynomolgus monkey); test: flow cytometry, Alexa Fluor 647-conjugated antibody on cynomolgus monocytes

Measured: binding

B1: X7 (antibody, human IgG4, V domains shown)
VH: QVQLVQSGAEVKKPGSSVKVSCKASGYNFLNYDVNWVRQAPGQGLEWMGGIIPIFGTANYAQKFQGRVTITADESTSTAYMELSSLRSEDTAVYYCATGVGAGWFDPWGQGTLVTVSS
VL: DIVMTQSPDSLAVSLGERATINCKSSQSVFFDENNKNYLAWYQQKPGQPPKLLIYWASTRESGVPDRFSGSGSGTDFTLTISSLQAEDVAVYYCQQYFEEPYTFGQGTRLEIK
binds: [1] | [2] | [3] | [4]

B2: X11 (antibody, human IgG4, V domains shown)
VH: QVQLVQSGAEVKKPGSSVKVSCKASGYNFLNYDVNWVRQAPGQGLEWMGGIIPIFGTANYAQKFQGRVTITADESTSTAYMELSSLRSEDTAVYYCATGVGAGWFDPWGQGTLVTVSS
VL: DIVMTQSPDSLAVSLGERATINCKSSQSVYFSENNKNYLAWYQQKPGQPPKLLIYWASTRESGVPDRFSGSGSGTDFTLTISSLQAEDVAVYYCQQYYEEPYTFGQGTRLEIK
binds: [1] | [2] | [3] | [4]

B3: X14 (antibody, human IgG4, V domains shown)
VH: QVQLVQSGAEVKKPGSSVKVSCKASGYNFLHYDVNWVRQAPGQGLEWMGGIIPIFGTANYAQKFQGRVTITADESTSTAYMELSSLRSEDTAVYYCATAVGAGWFDTWGQGTLVTVSS
VL: DIVMTQSPDSLAVSLGERATINCKSSQSVYFSPNNKNYLAWYQQKPGQPPKLLIYWASTRESGVPDRFSGSGSGTDFTLTISSLQAEDVAVYYCQQYFEEPYTFGQGTRLEIK
binds: [1] | [2] | [3] | [4]

B4: X18 (antibody, human IgG4, V domains shown)
VH: QVQLVQSGAEVKKPGSSVKVSCKASGYNFLHYDVNWVRQAPGQGLEWMGGIIPIFGTANYAQKFQGRVTITADESTSTAYMELSSLRSEDTAVYYCATAVGAGWFDTWGQGTLVTVSS
VL: DIVMTQSPDSLAVSLGERATINCKSSQSVWFDPNNKNYLAWYQQKPGQPPKLLIYWASTRESGVPDRFSGSGSGTDFTLTISSLQAEDVAVYYCQQYFEEPYTFGQGTRLEIK
binds: [1] | [2] | [3] | [4]

B5: X20 (antibody, human IgG4, V domains shown)
VH: QVQLVQSGAEVKKPGSSVKVSCKASGYNFLHYDVNWVRQAPGQGLEWMGGIIPIFGTANYAQKFQGRVTITADESTSTAYMELSSLRSEDTAVYYCATAVGAGWFDPWGQGTLVTVSS
VL: DIVMTQSPDSLAVSLGERATINCKSSQSVYFSENNKNYLAWYQQKPGQPPKLLIYWASTRESGVPDRFSGSGSGTDFTLTISSLQAEDVAVYYCQQYYEEPYTFGQGTRLEIK
binds: [1] | [2] | [3] | [4]

B6: X4 (antibody, human IgG4, V domains shown)
VH: QVQLVQSGAEVKKPGSSVKVSCKASGYNFLNYDVNWVRQAPGQGLEWMGGIIPIFGTANYAQKFQGRVTITADESTSTAYMELSSLRSEDTAVYYCATGVGAGWFDPWGQGTLVTVSS
VL: DIVMTQSPDSLAVSLGERATINCKSSQSVYFSPNNKNYLAWYQQKPGQPPKLLIYWASTRESGVPDRFSGSGSGTDFTLTISSLQAEDVAVYYCQQYFEEPYTFGQGTRLEIK
binds: [2]

B7: X17 (antibody, human IgG4, V domains shown)
VH: QVQLVQSGAEVKKPGSSVKVSCKASGYNFLHYDVNWVRQAPGQGLEWMGGIIPIFGTANYAQKFQGRVTITADESTSTAYMELSSLRSEDTAVYYCATAVGAGWFDTWGQGTLVTVSS
VL: DIVMTQSPDSLAVSLGERATINCKSSQSVFFDENNKNYLAWYQQKPGQPPKLLIYWASTRESGVPDRFSGSGSGTDFTLTISSLQAEDVAVYYCQQYFEEPYTFGQGTRLEIK
binds: [2]

Results are given in words; binding and its absence hold for the method and conditions named. Binding can be weak; no strength is given.
